Measurements reported in paper PMC9023290.

Chains of the proteins cited; added tags and fusions are not shown.
UniProt P78527: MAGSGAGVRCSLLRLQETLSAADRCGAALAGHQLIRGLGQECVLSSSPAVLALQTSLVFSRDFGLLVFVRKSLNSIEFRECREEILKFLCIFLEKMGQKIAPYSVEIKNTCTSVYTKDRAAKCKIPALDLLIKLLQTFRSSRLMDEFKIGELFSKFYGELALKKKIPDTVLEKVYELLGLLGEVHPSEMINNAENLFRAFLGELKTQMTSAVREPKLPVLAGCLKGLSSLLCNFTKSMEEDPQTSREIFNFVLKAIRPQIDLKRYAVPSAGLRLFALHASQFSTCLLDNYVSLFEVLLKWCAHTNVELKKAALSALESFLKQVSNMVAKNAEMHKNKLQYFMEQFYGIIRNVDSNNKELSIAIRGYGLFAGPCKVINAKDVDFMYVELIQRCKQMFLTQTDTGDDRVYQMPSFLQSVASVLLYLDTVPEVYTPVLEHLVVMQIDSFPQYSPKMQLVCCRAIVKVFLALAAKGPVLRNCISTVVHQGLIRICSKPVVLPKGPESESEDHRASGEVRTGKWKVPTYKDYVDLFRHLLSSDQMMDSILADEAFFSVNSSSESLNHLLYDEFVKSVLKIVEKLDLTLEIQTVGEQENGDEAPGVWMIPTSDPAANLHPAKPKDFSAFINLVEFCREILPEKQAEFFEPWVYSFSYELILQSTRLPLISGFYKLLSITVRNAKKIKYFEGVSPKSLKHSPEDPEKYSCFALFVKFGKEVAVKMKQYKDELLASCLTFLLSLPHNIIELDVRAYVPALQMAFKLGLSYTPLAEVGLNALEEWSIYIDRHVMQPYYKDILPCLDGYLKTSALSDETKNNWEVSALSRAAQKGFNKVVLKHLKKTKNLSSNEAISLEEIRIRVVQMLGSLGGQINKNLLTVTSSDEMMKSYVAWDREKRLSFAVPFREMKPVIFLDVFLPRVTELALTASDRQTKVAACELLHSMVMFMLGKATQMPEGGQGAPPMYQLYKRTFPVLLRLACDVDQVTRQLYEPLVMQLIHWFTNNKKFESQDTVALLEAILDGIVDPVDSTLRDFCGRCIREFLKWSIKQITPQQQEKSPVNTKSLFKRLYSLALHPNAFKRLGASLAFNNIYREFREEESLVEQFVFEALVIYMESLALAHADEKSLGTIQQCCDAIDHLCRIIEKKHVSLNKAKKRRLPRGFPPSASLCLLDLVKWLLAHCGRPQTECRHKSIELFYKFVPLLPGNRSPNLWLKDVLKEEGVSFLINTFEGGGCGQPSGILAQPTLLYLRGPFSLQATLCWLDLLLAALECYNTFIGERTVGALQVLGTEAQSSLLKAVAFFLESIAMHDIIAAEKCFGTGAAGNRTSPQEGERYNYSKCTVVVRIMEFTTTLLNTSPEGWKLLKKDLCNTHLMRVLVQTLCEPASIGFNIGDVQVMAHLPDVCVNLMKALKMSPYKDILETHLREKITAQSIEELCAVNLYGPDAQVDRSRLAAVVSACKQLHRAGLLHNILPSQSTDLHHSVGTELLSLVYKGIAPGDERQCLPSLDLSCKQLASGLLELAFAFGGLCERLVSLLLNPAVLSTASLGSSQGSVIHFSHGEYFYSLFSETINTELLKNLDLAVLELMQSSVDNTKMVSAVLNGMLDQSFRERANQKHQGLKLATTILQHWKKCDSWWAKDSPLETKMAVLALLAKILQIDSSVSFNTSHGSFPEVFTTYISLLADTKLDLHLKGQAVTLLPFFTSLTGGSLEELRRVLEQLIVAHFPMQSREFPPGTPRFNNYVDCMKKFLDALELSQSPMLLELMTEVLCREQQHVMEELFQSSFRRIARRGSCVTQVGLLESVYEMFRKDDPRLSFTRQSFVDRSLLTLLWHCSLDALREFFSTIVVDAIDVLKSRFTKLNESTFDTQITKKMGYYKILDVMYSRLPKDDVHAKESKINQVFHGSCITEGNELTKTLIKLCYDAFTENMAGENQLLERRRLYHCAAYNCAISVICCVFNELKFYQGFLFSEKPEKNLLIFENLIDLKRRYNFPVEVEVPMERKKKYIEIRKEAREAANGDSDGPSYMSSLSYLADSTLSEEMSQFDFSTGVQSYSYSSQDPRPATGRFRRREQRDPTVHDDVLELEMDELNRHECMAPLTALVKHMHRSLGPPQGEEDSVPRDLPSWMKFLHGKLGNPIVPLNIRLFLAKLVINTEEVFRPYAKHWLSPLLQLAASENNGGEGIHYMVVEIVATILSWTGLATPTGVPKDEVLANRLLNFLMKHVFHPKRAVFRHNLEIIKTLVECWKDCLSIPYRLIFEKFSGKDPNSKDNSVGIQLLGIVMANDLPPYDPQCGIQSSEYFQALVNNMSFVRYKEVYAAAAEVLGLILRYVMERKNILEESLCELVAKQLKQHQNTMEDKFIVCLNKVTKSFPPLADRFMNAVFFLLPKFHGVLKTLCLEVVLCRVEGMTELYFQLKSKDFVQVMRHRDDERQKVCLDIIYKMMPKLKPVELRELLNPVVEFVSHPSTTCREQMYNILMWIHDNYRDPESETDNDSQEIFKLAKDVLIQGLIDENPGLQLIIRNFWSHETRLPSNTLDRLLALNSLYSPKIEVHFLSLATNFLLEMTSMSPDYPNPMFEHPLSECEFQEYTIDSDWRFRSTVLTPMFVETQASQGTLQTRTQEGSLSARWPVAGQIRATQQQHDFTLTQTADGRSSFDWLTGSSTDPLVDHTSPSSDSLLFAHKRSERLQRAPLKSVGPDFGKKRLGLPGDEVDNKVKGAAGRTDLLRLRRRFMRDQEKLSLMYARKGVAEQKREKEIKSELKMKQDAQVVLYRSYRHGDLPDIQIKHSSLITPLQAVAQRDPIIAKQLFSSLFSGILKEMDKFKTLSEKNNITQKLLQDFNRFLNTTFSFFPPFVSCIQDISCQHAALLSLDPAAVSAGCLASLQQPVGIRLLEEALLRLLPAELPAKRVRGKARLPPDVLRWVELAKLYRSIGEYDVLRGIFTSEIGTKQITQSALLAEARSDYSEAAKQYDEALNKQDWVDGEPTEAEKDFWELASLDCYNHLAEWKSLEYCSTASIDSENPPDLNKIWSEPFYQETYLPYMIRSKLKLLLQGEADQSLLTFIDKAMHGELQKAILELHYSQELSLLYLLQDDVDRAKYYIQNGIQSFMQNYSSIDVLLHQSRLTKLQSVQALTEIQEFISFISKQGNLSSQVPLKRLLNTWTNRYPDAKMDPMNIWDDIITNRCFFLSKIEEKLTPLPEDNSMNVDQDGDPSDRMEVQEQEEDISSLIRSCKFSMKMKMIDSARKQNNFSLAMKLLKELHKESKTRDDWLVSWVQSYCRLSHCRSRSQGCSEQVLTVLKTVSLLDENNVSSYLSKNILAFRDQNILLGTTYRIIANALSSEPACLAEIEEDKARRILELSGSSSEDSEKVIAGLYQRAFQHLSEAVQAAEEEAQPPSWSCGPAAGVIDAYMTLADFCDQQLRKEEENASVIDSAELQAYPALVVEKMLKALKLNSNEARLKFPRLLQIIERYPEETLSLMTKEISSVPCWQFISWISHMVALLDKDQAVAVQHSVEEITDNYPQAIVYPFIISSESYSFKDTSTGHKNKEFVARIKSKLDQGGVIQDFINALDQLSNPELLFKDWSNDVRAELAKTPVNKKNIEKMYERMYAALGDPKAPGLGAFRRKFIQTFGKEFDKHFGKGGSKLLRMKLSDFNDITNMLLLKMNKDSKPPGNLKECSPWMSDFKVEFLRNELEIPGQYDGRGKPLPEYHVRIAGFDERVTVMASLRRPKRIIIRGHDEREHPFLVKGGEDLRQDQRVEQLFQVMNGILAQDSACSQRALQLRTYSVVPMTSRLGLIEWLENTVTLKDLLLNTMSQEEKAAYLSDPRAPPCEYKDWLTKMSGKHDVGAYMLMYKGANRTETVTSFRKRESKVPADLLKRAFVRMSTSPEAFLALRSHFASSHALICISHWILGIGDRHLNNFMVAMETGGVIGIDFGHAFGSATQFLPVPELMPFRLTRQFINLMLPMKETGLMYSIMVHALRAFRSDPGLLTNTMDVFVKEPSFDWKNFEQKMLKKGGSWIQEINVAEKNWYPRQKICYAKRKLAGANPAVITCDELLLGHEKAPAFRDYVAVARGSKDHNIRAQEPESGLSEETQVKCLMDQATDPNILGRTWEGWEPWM

Biological target: T1, SFB-tagged ZMYM2 (human) (UniProt Q9UBW7)
T1 sequence: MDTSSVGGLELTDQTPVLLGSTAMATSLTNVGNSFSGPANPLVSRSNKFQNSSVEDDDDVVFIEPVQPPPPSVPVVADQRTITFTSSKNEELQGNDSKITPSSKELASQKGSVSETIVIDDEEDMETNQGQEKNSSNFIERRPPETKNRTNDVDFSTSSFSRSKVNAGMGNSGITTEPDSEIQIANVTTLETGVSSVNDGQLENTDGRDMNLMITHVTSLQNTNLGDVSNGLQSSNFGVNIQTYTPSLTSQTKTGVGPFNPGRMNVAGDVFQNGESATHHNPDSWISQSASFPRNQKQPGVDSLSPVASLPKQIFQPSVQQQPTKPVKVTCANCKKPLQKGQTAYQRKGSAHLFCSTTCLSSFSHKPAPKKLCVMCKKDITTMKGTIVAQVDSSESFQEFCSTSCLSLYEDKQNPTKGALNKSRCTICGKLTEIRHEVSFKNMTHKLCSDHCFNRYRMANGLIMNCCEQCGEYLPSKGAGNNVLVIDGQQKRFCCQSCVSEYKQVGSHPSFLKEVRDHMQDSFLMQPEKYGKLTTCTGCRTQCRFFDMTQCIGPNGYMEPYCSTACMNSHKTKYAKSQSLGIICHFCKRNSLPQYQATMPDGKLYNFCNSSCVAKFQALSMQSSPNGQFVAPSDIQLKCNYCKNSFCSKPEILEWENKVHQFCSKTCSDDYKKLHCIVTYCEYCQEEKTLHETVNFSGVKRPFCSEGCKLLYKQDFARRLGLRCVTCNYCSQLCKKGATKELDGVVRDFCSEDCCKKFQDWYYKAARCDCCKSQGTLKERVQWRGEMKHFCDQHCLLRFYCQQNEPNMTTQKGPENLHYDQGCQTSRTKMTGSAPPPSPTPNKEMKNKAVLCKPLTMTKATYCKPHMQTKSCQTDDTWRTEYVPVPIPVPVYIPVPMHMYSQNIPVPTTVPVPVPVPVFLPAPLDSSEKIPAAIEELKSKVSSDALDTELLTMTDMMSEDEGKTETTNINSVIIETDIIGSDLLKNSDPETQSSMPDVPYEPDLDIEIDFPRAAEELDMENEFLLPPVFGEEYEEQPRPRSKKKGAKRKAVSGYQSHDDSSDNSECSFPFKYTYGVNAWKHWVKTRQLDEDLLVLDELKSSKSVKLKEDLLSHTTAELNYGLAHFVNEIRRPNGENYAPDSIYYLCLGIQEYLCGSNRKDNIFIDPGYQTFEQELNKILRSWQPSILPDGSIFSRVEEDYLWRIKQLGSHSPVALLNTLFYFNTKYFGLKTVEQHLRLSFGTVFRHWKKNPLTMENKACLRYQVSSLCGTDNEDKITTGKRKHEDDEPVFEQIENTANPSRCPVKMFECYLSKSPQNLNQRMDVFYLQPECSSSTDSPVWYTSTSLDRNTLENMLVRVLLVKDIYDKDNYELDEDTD
Test: affinity purification with mass spectrometry; tandem affinity purification of SFB-ZMYM2 from transfected HEK293T cells; chromatin fraction (NETN buffer with Turbo-Nuclease, 1 mM MgCl2); streptavidin sepharose, biotin elution, S-protein beads; two independent experiments

binding: binds
Molecule: DNA-dependent protein kinase DNA-PK (PRKDC) (from UniProt P78527 1-4128) (enzyme)

binding: binds
B1: Endogenous ZMYM3 (protein, UniProt Q14202 1-1370)
chain: MDPSDFPSPFDPLTLPEKPLAGDLPVDMEFGEDLLESQTAPTRGWAPPGPSPSSGALDLLDTPAGLEKDPGVLDGATELLGLGGLLYKAPSPPEVDHGPEGTLAWDAGDQTLEPGPGGQTPEVVPPDPGAGANSCSPEGLLEPLAPDSPITLQSPHIEEEETTSIATARRGSPGQEEELPQGQPQSPNAPPSPSVGETLGDGINSSQTKPGGSSPPAHPSLPGDGLTAKASEKPPERKRSERVRRAEPPKPEVVDSTESIPVSDEDSDAMVDDPNDEDFVPFRPRRSPRMSLRSSVSQRAGRSAVGTKMTCAHCRTPLQKGQTAYQRKGLPQLFCSSSCLTTFSKKPSGKKTCTFCKKEIWNTKDSVVAQTGSGGSFHEFCTSVCLSLYEAQQQRPIPQSGDPADATRCSICQKTGEVLHEVSNGSVVHRLCSDSCFSKFRANKGLKTNCCDQCGAYIYTKTGSPGPELLFHEGQQKRFCNTTCLGAYKKKNTRVYPCVWCKTLCKNFEMLSHVDRNGKTSLFCSLCCTTSYKVKQAGLTGPPRPCSFCRRSLSDPCYYNKVDRTVYQFCSPSCWTKFQRTSPEGGIHLSCHYCHSLFSGKPEVLDWQDQVFQFCCRDCCEDFKRLRGVVSQCEHCRQEKLLHEKLRFSGVEKSFCSEGCVLLYKQDFTKKLGLCCITCTYCSQTCQRGVTEQLDGSTWDFCSEDCKSKYLLWYCKAARCHACKRQGKLLETIHWRGQIRHFCNQQCLLRFYSQQNQPNLDTQSGPESLLNSQSPESKPQTPSQTKVENSNTVRTPEENGNLGKIPVKTRSAPTAPTPPPPPPPATPRKNKAAMCKPLMQNRGVSCKVEMKSKGSQTEEWKPQVIVLPIPVPIFVPVPMHLYCQKVPVPFSMPIPVPVPMFLPTTLESTDKIVETIEELKVKIPSNPLEADILAMAEMIAEAEELDKASSDLCDLVSNQSAEGLLEDCDLFGPARDDVLAMAVKMANVLDEPGQDLEADFPKNPLDINPSVDFLFDCGLVGPEDVSTEQDLPRTMRKGQKRLVLSESCSRDSMSSQPSCTGLNYSYGVNAWKCWVQSKYANGETSKGDELRFGPKPMRIKEDILACSAAELNYGLAQFVREITRPNGERYEPDSIYYLCLGIQQYLLENNRMVNIFTDLYYLTFVQELNKSLSTWQPTLLPNNTVFSRVEEEHLWECKQLGVYSPFVLLNTLMFFNTKFFGLQTAEEHMQLSFTNVVRQSRKCTTPRGTTKVVSIRYYAPVRQRKGRDTGPGKRKREDEAPILEQRENRMNPLRCPVKFYEFYLSKCPESLRTRNDVFYLQPERSCIAESPLWYSVIPMDRSMLESMLNRILAVREIYEELGRPGEEDLD

No constants are given. Whether binding was seen depends on the method and setting. Binding seen in cells or lysates may run through a third protein. These calls come from enrichment with a bait or labelling near it, and not all partners need be listed. Sequences can lack the tags named with a protein. Each block holds one molecule with its values, some of them ahead of it.
